One molecule from publication PMC7413538 can be followed below.

Amino acid sequences for entries named in this document (tags omitted). A change or cut given only in a name is not applied to a line headed by its entry.
UniProt Q00651: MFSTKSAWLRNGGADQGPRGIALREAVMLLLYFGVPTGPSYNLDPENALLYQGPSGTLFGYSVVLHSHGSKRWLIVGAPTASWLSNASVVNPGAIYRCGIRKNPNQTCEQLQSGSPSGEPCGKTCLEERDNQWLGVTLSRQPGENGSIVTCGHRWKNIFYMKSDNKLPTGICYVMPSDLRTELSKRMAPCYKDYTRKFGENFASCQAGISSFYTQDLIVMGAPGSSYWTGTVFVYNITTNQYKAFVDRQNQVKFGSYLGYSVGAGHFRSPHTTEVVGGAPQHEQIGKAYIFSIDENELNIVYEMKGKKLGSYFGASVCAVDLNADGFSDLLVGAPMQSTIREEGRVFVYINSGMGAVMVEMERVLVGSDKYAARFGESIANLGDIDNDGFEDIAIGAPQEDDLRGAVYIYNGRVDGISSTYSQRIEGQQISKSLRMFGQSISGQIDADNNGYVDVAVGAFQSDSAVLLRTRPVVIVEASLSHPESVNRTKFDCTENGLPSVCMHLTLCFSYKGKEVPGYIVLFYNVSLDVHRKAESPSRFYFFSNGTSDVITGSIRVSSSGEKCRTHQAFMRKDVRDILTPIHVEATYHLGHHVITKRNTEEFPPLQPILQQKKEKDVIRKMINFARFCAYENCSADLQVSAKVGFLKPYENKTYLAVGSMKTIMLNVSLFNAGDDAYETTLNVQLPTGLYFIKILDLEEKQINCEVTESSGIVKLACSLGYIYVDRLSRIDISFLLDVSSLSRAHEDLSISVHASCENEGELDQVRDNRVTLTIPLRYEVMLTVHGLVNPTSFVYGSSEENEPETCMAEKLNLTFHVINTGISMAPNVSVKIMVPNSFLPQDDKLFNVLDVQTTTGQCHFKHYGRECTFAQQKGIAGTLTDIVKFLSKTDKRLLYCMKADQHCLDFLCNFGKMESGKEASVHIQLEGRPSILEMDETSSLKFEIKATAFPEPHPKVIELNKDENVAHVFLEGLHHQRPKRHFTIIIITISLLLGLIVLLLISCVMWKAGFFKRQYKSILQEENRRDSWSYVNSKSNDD
UniProt P26011: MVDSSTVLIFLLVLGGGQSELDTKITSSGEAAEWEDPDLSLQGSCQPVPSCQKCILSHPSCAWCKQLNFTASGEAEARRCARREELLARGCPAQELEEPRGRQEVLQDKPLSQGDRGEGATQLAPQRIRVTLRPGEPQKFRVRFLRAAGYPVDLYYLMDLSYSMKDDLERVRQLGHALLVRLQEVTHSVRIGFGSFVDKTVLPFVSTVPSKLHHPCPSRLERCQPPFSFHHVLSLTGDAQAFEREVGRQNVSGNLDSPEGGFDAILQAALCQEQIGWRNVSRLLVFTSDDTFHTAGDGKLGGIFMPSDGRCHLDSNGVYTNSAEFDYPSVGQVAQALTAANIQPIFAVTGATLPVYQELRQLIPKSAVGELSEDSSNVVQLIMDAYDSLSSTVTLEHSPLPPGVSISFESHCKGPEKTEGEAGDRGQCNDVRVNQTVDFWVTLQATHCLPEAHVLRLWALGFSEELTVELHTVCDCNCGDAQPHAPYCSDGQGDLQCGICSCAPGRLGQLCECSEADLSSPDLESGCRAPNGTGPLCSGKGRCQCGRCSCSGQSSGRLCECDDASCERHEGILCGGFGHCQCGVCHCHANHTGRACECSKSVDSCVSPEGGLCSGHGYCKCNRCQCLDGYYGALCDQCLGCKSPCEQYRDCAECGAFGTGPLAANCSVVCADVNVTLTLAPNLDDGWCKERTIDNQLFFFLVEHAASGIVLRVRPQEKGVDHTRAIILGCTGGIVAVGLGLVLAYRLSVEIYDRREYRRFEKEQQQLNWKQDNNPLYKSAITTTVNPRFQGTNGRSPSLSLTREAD

Assay [1] deals with T1, α4β7 integrin on wild-type BAF (Ba/F3) cells (mouse (endogenous in Ba/F3)) (UniProt Q00651+P26011). The assay is described as follows: flow cytometry on cells; wt BAF cells (2 x 10^5 in 50 μl) incubated with mouse MAdCAM-1-Fc (30 μg/ml) in HBSS, 0.1% BSA, 1 mM CaCl2, 1 mM MgCl2; detected with APC anti-human IgG Fc; fluorescence normalised to anti-β7 (FIB504); only the binder purified. On the technique in general: A flow cytometer gives signals particle by particle.

For assay [2], the target named is T1, α4β7 integrin on wild-type BAF (Ba/F3) cells (mouse (endogenous in Ba/F3)). Nature of the assay: flow cytometry on cells; wt BAF cells (2 x 10^5 in 50 μl) incubated with mouse MAdCAM-1-Fc (30 μg/ml) in HBSS, 0.1% BSA, 0.5 mM MnCl2; detected with APC anti-human IgG Fc; fluorescence normalised to anti-β7 (FIB504); only the binder purified.
Assay [3] deals with α4β7 integrin with PA-tag insertion mutant PAins 2 of the β7 chain, on β7-knockout BAF cells (mouse (endogenous in Ba/F3) | murine) (UniProt Q00651+P26011). Nature of the assay: flow cytometry on cells; PAins2 BAF cells (control, Rap1V12, Spa-1-expressing, Rap1a/b knock-down) incubated with soluble MAdCAM-1-Fc in the presence or absence of CXCL12; fluorescence normalised to anti-β7 (FIB504); only the binder purified.

Results are given in words; binding and its absence hold for the method and conditions named. Some binding calls cover weakened binding; strength is not graded here. Sequences can lack the tags named with a protein.

B1: mouse MAdCAM-1-Fc (Fc fusion, UniProt Q61826 22-364)
chain: QSFQVNPPESEVAVAMGTSLQITCSMSCDEGVARVHWRGLDTSLGSVQTLPGSSILSVRGMLSDTGTPVCVGSCGSRSFQHSVKILVYAFPDQLVVSPEFLVPGQDQVVSCTAHNIWPADPNSLSFALLLGEQRLEGAQALEPEQEEEIQEAEGTPLFRMTQRWRLPSLGTPAPPALHCQVTMQLPKLVLTHRKEIPVLQSQTSPKPPNTTSAEPYILTSSSTAEAVSTGLNITTLPSAPPYPKLSPRTLSSEGPCRPKIHQDLEAGWELLCEASCGPGVTVRWTLAPGDLATYHKREAGAQAWLSVLPPGPMVEGWFQCRQDPGGEVTNLYVPGQVTPNSSS
Turning to B1, the binding entry was “binds weakly” in assay [1], “binds” in assay [2] and “binds” in assay [3].
